Source: the supplement of paper PMC12542422
Counter-ions that a name gives are not always drawn. ± gives the standard deviation of the averaged measurements. Some of the results follow. Values are raw readings; no control value is given beside them.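 HeLa cells imaged for ribosome-assembly readouts (ENP1 staining with or without export block, or inducible tagged ribosomal protein reporters); machine learning classified each cell's signal location against solvent (DMSO) controls. Hits exceeded the DMSO false-positive mean by five standard deviations, then were visually confirmed; three biological replicates.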

Key:
[1] = system: HeLa K (ENP1 immunofluorescence, +LMB); test: fraction of cells with nucleolar or nucleolar/nucleoplasmic ENP1 signal (MainHitrate); higher = more cells with nucleolar/nuclear readout signal (for ENP1 -LMB: less RNAPI inhibition; for +LMB ENP1 and RP reporters: stronger nuclear/nucleolar retention, i.e. ribosome biogenesis defect); conditions: concentration: 1 µM; treatment time: 6 h; ENP1 +LMB; leptomycin B: 20 nM, last 1.5 h
[2] = system: HeLa K (ENP1 immunofluorescence, no LMB); test: as above; conditions: concentration: 1 µM; treatment time: 6 h; ENP1 -LMB; leptomycin B: none
HeLa RPS2-YFP reporter = test: fraction of reporter-positive cells with nuclear (nucleolar or nucleolar/nucleoplasmic) RPS2-YFP (MainHitrate); higher = more cells with nucleolar/nuclear readout signal (for ENP1 -LMB: less RNAPI inhibition; for +LMB ENP1 and RP reporters: stronger nuclear/nucleolar retention, i.e. ribosome biogenesis defect); conditions: concentration: 1 µM; treatment time: 6 h
HeLa RPL29-GFP reporter = test: fraction of reporter-positive cells with nuclear (nucleolar or nucleolar/nucleoplasmic) RPL29-GFP (MainHitrate); higher = more cells with nucleolar/nuclear readout signal (for ENP1 -LMB: less RNAPI inhibition; for +LMB ENP1 and RP reporters: stronger nuclear/nucleolar retention, i.e. ribosome biogenesis defect); conditions: concentration: 1 µM; treatment time: 6 h

Compound	fraction [1]	fraction [2]	fraction of reporter-positive cells with nuclear (HeLa RPS2-YFP reporter)	fraction of reporter-positive cells with nuclear (HeLa RPL29-GFP reporter)
CN1C(C(=O)Nc2ccccn2)=C(O)c2sc(Cl)cc2S1(=O)=O [Lornoxicam (Xefo)]	0.166 ± 0.25	0.99 ± 0.017	0.1 ± 0.052	0.234 ± 0.094
CO/N=C(\C(=O)N[C@@H]1C(=O)N2C(C(=O)O)=C(CSC(=O)c3ccco3)CS[C@H]12)c1csc(N)n1 [Ceftiofur hydrochloride]	0.151 ± 0.23	0.994 ± 0.011	0.122 ± 0.084	0.214 ± 0.068
Cc1c(OCC(F)(F)F)ccnc1C[S+]([O-])c1nc2ccccc2[nH]1 (stereo not drawn) [Lansoprazole]	0.071 ± 0.052	0.9983 ± 0.0029	0.117 ± 0.052	0.186 ± 0.056
Cc1cn([C@H]2C=C[C@@H](CO)O2)c(=O)[nH]c1=O [Stavudine]	0.12 ± 0.14	0.998 ± 0.0034	0.106 ± 0.062	0.197 ± 0.055
O=C([O-])c1ccccc1O.[Na+] [Sodium salicylate]	0.136 ± 0.2	0.9948 ± 0.0091	0.115 ± 0.071	0.207 ± 0.076
CCC1=C(C)CN(C(=O)NCCc2ccc(S(=O)(=O)NC(=O)N[C@H]3CC[C@H](C)CC3)cc2)C1=O [Glimepiride]	0.0788 ± 0.058	0.9977 ± 0.004	0.0606 ± 0.014	0.207 ± 0.037
NC1CCN(c2c(F)cc3c(=O)c(C(=O)O)cn(C4CC4)c3c2Cl)C1 (stereo not drawn) [Clinafoxacin HCl]	0.108 ± 0.13	0.9949 ± 0.0088	0.137 ± 0.15	0.307 ± 0.23
CC(C)c1nc(N(C)S(C)(=O)=O)nc(-c2ccc(F)cc2)c1/C=C/[C@@H](O)C[C@@H](O)CC(=O)O [Rosuvastatin calcium (Crestor)]	0.096 ± 0.12	0.994 ± 0.01	0.134 ± 0.097	0.243 ± 0.087
O.O=[Si]=O.O=[Si]=O.O=[Si]=O.O=[Si]=O.[O]=[Mg].[O]=[Mg].[O]=[Mg]	0.118 ± 0.18	0.983 ± 0.029	0.106 ± 0.061	0.224 ± 0.085
CC[C@]1(O)C[C@H]2CN(CCc3c([nH]c4ccccc34)[C@@](C(=O)OC)(c3cc4c(cc3OC)N(C=O)[C@H]3[C@@](O)(C(=O)OC)[C@H](OC(C)=O)[C@]5(CC)C=CCN6CC[C@]43[C@@H]65)C2)C1 [Vincristine]	0.306 ± 0.19	0.9975 ± 0.0044	0.265 ± 0.2	0.33 ± 0.15
CN1CC(=O)N2[C@H](c3ccc4c(c3)OCO4)c3[nH]c4ccccc4c3C[C@@H]2C1=O [Tadalafil (Cialis)]	0.0669 ± 0.051	0.9986 ± 0.0024	0.112 ± 0.044	0.254 ± 0.075
CC(C)(C(=O)O)c1ccc(C(O)CCCN2CCC(C(O)(c3ccccc3)c3ccccc3)CC2)cc1 (stereo not drawn) [Fexofenadine HCl]	0.0775 ± 0.095	0.984 ± 0.027	0.118 ± 0.11	0.221 ± 0.055
CCN[C@H]1CN(CCCOC)S(=O)(=O)c2sc(S(N)(=O)=O)cc21 [Brinzolamide]	0.18 ± 0.29	0.979 ± 0.037	0.122 ± 0.12	0.209 ± 0.075
CO[C@H]1C[C@@H]2CC[C@@H](C)[C@@](O)(O2)C(=O)C(=O)N2CCCC[C@H]2C(=O)O[C@H]([C@H](C)C[C@@H]2CC[C@@H](OCCO)[C@H](OC)C2)CC(=O)[C@H](C)/C=C(\C)[C@@H](O)[C@@H](OC)C(=O)[C@H](C)C[C@H](C)/C=C/C=C/C=C/1C [Everolimus (RAD001)]	0.17 ± 0.11	0.998 ± 0.0034	0.257 ± 0.19	0.331 ± 0.13
O=C1N=C(O)NC1(c1ccccc1)c1ccccc1 [Phenytoin sodium (Dilantin)]	0.133 ± 0.2	0.994 ± 0.01	0.117 ± 0.068	0.224 ± 0.069
CS(=O)(=O)c1ccc(C2=C(c3ccccc3)C(=O)OC2)cc1 [Rofecoxib (Vioxx)]	0.0851 ± 0.13	0.983 ± 0.029	0.11 ± 0.07	0.218 ± 0.075
Cc1ccccc1N1C(=O)c2cc(S(N)(=O)=O)c(Cl)cc2NC1C (stereo not drawn) [Metolazone (Zaroxolyn)]	0.0729 ± 0.061	0.9991 ± 0.0015	0.0952 ± 0.068	0.217 ± 0.057
NC(=O)c1cn(Cc2c(F)cccc2F)nn1 [Rufinamide (Banzel)]	0.109 ± 0.096	0.9985 ± 0.0026	0.125 ± 0.09	0.219 ± 0.091
CC(=O)Oc1ccccc1C(=O)O [Aspirin (Acetylsalicylic acid)]	0.11 ± 0.17	0.965 ± 0.061	0.116 ± 0.095	0.215 ± 0.043
Cc1ncc([N+](=O)[O-])n1CCO [Metronidazole (Flagyl)]	0.132 ± 0.19	0.993 ± 0.011	0.171 ± 0.1	0.235 ± 0.11
CN1CCN(c2c(F)cc3c(=O)c(C(=O)O)cn4c3c2OCN4C)CC1 [Marbofloxacin]	0.0839 ± 0.027	0.9968 ± 0.0055	0.0814 ± 0.063	0.188 ± 0.026
C=C[C@]1(C)C[C@@H](OC(=O)CS[C@@H]2C[C@H]3CC[C@@H](C2)N3C)[C@]2(C)[C@H](C)CC[C@]3(CCC(=O)[C@H]32)[C@@H](C)[C@@H]1O [Retapamulin]	0.0588 ± 0.07	0.984 ± 0.028	0.109 ± 0.094	0.209 ± 0.074
C[N+](C)(C)CCO.[Cl-] [Choline Chloride]	0.0656 ± 0.069	0.977 ± 0.041	0.117 ± 0.082	0.232 ± 0.053
CN1CCN(CCCN2c3ccccc3Sc3ccc(C(F)(F)F)cc32)CC1 [Trifluoperazine 2HCl]	0.0603 ± 0.079	0.99 ± 0.018	0.123 ± 0.098	0.216 ± 0.074
CCOC(=O)c1ccc(N)cc1 [Benzocaine]	0.118 ± 0.17	0.978 ± 0.038	0.105 ± 0.097	0.211 ± 0.051
N[C@@H](Cc1cc(I)c(Oc2cc(I)c(O)c(I)c2)c(I)c1)C(=O)O [L-Thyroxine]	0.0539 ± 0.067	0.986 ± 0.023	0.0954 ± 0.053	0.193 ± 0.028
O=C1c2ccccc2C(=O)C1c1ccccc1 [Phenindione (Rectadione)]	0.0839 ± 0.12	0.9951 ± 0.0085	0.112 ± 0.086	0.233 ± 0.067

Random excerpt: 2 compounds from above.
Compound	fraction [1]	fraction [2]	fraction of reporter-positive cells with nuclear (HeLa RPS2-YFP reporter)	fraction of reporter-positive cells with nuclear (HeLa RPL29-GFP reporter)
C=C[C@]1(C)C[C@@H](OC(=O)CS[C@@H]2C[C@H]3CC[C@@H](C2)N3C)[C@]2(C)[C@H](C)CC[C@]3(CCC(=O)[C@H]32)[C@@H](C)[C@@H]1O [Retapamulin]	0.0588 ± 0.07	0.984 ± 0.028	0.109 ± 0.094	0.209 ± 0.074
C[N+](C)(C)CCO.[Cl-] [Choline Chloride]	0.0656 ± 0.069	0.977 ± 0.041	0.117 ± 0.082	0.232 ± 0.053
